{
  "sequences": {"note": "Protein sequences, listed by entry. Tags and fused reporters are not part of them. Residues count along the entry.", "UniProt P21589, 27-549 limits assumed": "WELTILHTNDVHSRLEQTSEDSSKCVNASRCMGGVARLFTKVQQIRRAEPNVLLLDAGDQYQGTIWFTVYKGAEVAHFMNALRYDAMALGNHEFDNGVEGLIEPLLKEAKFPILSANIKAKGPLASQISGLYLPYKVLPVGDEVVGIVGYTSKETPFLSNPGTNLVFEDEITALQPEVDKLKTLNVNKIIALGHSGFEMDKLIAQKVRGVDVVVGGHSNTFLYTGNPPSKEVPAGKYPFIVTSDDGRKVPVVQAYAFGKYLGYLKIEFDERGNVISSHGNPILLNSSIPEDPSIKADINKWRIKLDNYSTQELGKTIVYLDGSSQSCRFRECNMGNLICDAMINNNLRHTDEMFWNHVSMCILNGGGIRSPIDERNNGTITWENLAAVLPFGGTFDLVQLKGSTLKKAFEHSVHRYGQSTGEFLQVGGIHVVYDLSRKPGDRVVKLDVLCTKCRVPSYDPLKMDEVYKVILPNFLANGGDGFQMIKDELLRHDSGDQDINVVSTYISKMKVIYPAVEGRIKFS"},
  "source": "patent US12202818B2",
  "about": "“Compounds and methods for CD73 modulation and indications therefor” (Opna Bio SA, priority 2020, dated 2025)",
  "key": {"[1]": {"target": "Human CD73 (amino acid residues 27-549) (Homo sapiens, UniProt P21589)", "assay": "CD73 enzymatic assay (luciferase-based indirect assay, CellTiter-Glo)", "conditions": "read-out: CD73 IC50; 0.4 nM CD73, 150 μM AMP, 1 hour at room temperature", "protocol": "CD73 enzymatic activity was measured in a luciferase-based indirect assay using CellTiter-Glo® system from Promega. The luciferase reaction in the presence of ATP is inhibited by AMP, a primary substrate of CD73. Addition of CD73 enzyme to the reaction converts AMP to adenosine, and release the inhibition, producing a luminescent signal. Inhibition of CD73 leads to the decrease of this luminescent signal.\nHuman CD73 (amino acid residues 27-549) with N-Terminal His tag was purified in E. coli. All the assay components were prepared in 50 mM HEPEs buffer (pH 7.4) with 0.01% Tween-20. The CD73 enzymatic assay was performed using 0.4 nM CD73 and 150 μM AMP. 9.5 μL of CD73 protein and 9.5 μL of AMP were added to the wells of a 384 well plate containing lpL of various concentrations of test compound or DMSO vehicle and incubated for 1 hour at room temperature. 16 wells containing CD73, AMP and 5% DMSO served as high control. […] Enzymatic reaction was stopped and AMP level was measured indirectly by adding 5 μL of CellTiter-Glo® 2.0 reagent and 5 μL of ATP with a final concentration of 1 μM. Following incubation of the plate at room temperature for 30 minutes, luminescent signal was read on a Tecan plate reader. The percentage inhibition at individual concentrations relative to high and low controls was calculated. The data were analyzed by using nonlinear regression to generate IC50 values."}, "human CD73": {"target": "human CD73 (Homo sapiens, UniProt P21589)", "assay": "Inhibitor activity against CD73 in cell based assay (CD73 expressing CHO-K1 cells)", "conditions": "read-out: CHO-K1 CELL_VARIANT: CD73 IC50; CHO-K1 cells expressing human CD73, 150 μM AMP, 4 hours of incubation", "protocol": "Determine Inhibitor Activity Against CD73 in Cell Based Assay\nCD73 expressing CHO-K1 cell clones were generated upon stable transfection of a plasmid expressing human CD73 under the control of CMV promoter. Cells were selected in Ham's F-12K (Kaighn's) media supplemented with 10% fetal bovine serum and 1 mg/ml G418 at 37° C. in a humidified incubator supplied with 5% CO2. The assays were performed as follows. Cells were seeded in a 96 well plate in 50 μL of culture media at a density of 1×10^4 per well. Compound at a maximal concentration of 5 mM was serially diluted 1:3 in DMSO for a total of 8 point titration. A 2 μL aliquot of each dilution point was added to […] culture media and 25 µL was added to each well, providing 10 μM compound at the maximum concentration point. AMP was diluted in culture media and 25 μL was added to each well with a final concentration of 150 μM. […] AMP level in supernatant was measured indirectly by adding 5 μL of CellTiter-Glo® 2.0 reagent and 5 μL of ATP with a final concentration of 1 μM. Following incubation of plate at room temperature for 30 minutes, luminescent signal was read on a Tecan plate reader. The percentage inhibition at individual concentrations relative to high and low controls was calculated. The data were analyzed by using nonlinear regression to generate ICso values."}},
  "note": "The structures given here were assigned with low confidence; some may be wrong.",
  "data": [
    {"smiles": "Cc1nn(CC23CC(C#N)(C2)C3)c(C)c1-c1ccnc(O[C@@H]2CCN(c3cn[nH]c(=O)c3Cl)C2)c1", "values": [
      {"measurement": "IC50", "setting": "[1]", "value": "0.001 to 10", "unit": "µM"},
      {"measurement": "IC50", "setting": "human CD73", "value": "0.001 to 10", "unit": "µM"}
    ]}
  ]
}
